{"source": "PubChem BioAssay AID493246 – Drosophila RNAi Screening Center | 2011", "assay": "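Genome-wide search for dsRNAs that reduce cell number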 (primary screen)", "cells": "Drosophila Kc and S2R+ cells", "knock-down reagent": "long dsRNA against Drosophila genes", "detection": "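Cell number per well after knock-down, printed as raw plate values; calls were based on per-plate z-scores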", "scale": "Kc cell number and S2R+ cell number: higher = more cells remaining", "active means": "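Active when the per-plate z-score of cell number is 3 or more in the direction of fewer cells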", "note": "The screen tested about 21,000 reagents; shown is an unselected part of those with a known target gene and a result. In the full data, 429 (2%) were called active. 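Values are raw and not normalised between plates; calls rest on per-plate z-scores that were not deposited.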 Reagent sequences are not shown. Not stated in the record: the amount of reagent, the time to read-out."}
{"Target gene": "Lcp65APsi (pseudo)", "amplicon": "DRSC08795", "Kc cell number, rep 1": 1.65e6, "Kc cell number, rep 2": 1.66e6, "S2R+ cell number, rep 1": 1.02e6, "S2R+ cell number, rep 2": 1.23e6, "Outcome": "inactive"}
{"Target gene": "Lcp65APsi (pseudo)", "amplicon": "DRSC10342", "Kc cell number, rep 1": 1.30e6, "Kc cell number, rep 2": 1.36e6, "S2R+ cell number, rep 1": 1.10e6, "S2R+ cell number, rep 2": 1.18e6, "Outcome": "inactive"}
{"Target gene": "CG4101", "amplicon": "DRSC10400", "Kc cell number, rep 1": 1.43e6, "Kc cell number, rep 2": 1.61e6, "S2R+ cell number, rep 1": 1.20e6, "S2R+ cell number, rep 2": 1.32e6, "Outcome": "inactive"}
{"Target gene": "CG33253", "amplicon": "DRSC19547", "Kc cell number, rep 1": 1.68e6, "Kc cell number, rep 2": 1.68e6, "S2R+ cell number, rep 1": 1.14e6, "S2R+ cell number, rep 2": 1.28e6, "Outcome": "inactive"}
{"Target gene": "CG33253", "amplicon": "DRSC20053", "Kc cell number, rep 1": 1.78e6, "Kc cell number, rep 2": 1.56e6, "S2R+ cell number, rep 1": 1.07e6, "S2R+ cell number, rep 2": 1.25e6, "Outcome": "inactive"}
{"Target gene": "Drat (Death resistor Adh domain containing target)", "amplicon": "DRSC06600", "Kc cell number, rep 1": 9.13e5, "Kc cell number, rep 2": 1.16e6, "S2R+ cell number, rep 1": 6.49e5, "S2R+ cell number, rep 2": 5.22e5, "Outcome": "inactive"}
{"Target gene": "C3G (C3G guanyl-nucleotide exchange factor)", "amplicon": "DRSC17745", "Kc cell number, rep 1": 1.78e6, "Kc cell number, rep 2": 1.71e6, "S2R+ cell number, rep 1": 1.06e6, "S2R+ cell number, rep 2": 1.16e6, "Outcome": "inactive"}
{"Target gene": "C3G (C3G guanyl-nucleotide exchange factor)", "amplicon": "DRSC17929", "Kc cell number, rep 1": 1.67e6, "Kc cell number, rep 2": 1.72e6, "S2R+ cell number, rep 1": 1.09e6, "S2R+ cell number, rep 2": 1.28e6, "Outcome": "inactive"}
{"Target gene": "CG12926", "amplicon": "DRSC06239", "Kc cell number, rep 1": 1.55e6, "Kc cell number, rep 2": 1.50e6, "S2R+ cell number, rep 1": 1.12e6, "S2R+ cell number, rep 2": 1.20e6, "Outcome": "inactive"}
{"Target gene": "Acsx2 (Acyl-CoA synthetase X2)", "amplicon": "DRSC14308", "Kc cell number, rep 1": 1.21e6, "Kc cell number, rep 2": 1.23e6, "S2R+ cell number, rep 1": 1.09e6, "S2R+ cell number, rep 2": 1.16e6, "Outcome": "inactive"}
{"Target gene": "Neurl4 (Neuralized E3 ubiquitin protein ligase 4)", "amplicon": "DRSC10638", "Kc cell number, rep 1": 1.48e6, "Kc cell number, rep 2": 1.55e6, "S2R+ cell number, rep 1": 1.19e6, "S2R+ cell number, rep 2": 1.22e6, "Outcome": "inactive"}
{"Target gene": "CG15225", "amplicon": "DRSC04232", "Kc cell number, rep 1": 1.80e6, "Kc cell number, rep 2": 1.87e6, "S2R+ cell number, rep 1": 1.22e6, "S2R+ cell number, rep 2": 2.78e5, "Outcome": "inactive"}
{"Target gene": "CG10081", "amplicon": "DRSC05962", "Kc cell number, rep 1": 1.52e6, "Kc cell number, rep 2": 1.55e6, "S2R+ cell number, rep 1": 1.14e6, "S2R+ cell number, rep 2": 1.21e6, "Outcome": "inactive"}
{"Target gene": "CG5111", "amplicon": "DRSC15717", "Kc cell number, rep 1": 1.56e6, "Kc cell number, rep 2": 1.49e6, "S2R+ cell number, rep 1": 9.60e5, "S2R+ cell number, rep 2": 1.07e6, "Outcome": "inactive"}

The list goes on; the last 2 above are carried over.
{"Target gene": "CG10081", "amplicon": "DRSC05962", "Kc cell number, rep 1": 1.52e6, "Kc cell number, rep 2": 1.55e6, "S2R+ cell number, rep 1": 1.14e6, "S2R+ cell number, rep 2": 1.21e6, "Outcome": "inactive"}
{"Target gene": "CG5111", "amplicon": "DRSC15717", "Kc cell number, rep 1": 1.56e6, "Kc cell number, rep 2": 1.49e6, "S2R+ cell number, rep 1": 9.60e5, "S2R+ cell number, rep 2": 1.07e6, "Outcome": "inactive"}
{"Target gene": "CG32708", "amplicon": "DRSC18411", "Kc cell number, rep 1": 1.59e6, "Kc cell number, rep 2": 1.70e6, "S2R+ cell number, rep 1": 1.07e6, "S2R+ cell number, rep 2": 1.23e6, "Outcome": "inactive"}
{"Target gene": "Clc (Clathrin light chain)", "amplicon": "DRSC11116", "Kc cell number, rep 1": 1.43e6, "Kc cell number, rep 2": 1.50e6, "S2R+ cell number, rep 1": 1.18e6, "S2R+ cell number, rep 2": 1.25e6, "Outcome": "inactive"}
{"Target gene": "CG5334", "amplicon": "DRSC19941", "Kc cell number, rep 1": 1.35e6, "Kc cell number, rep 2": 1.42e6, "S2R+ cell number, rep 1": 1.09e6, "S2R+ cell number, rep 2": 1.15e6, "Outcome": "inactive"}
{"Target gene": "bchs (blue cheese)", "amplicon": "DRSC03126", "Kc cell number, rep 1": 1.45e6, "Kc cell number, rep 2": 1.30e6, "S2R+ cell number, rep 1": 1.12e6, "S2R+ cell number, rep 2": 1.25e6, "Outcome": "inactive"}
{"Target gene": "trol (terribly reduced optic lobes)", "amplicon": "DRSC17714", "Kc cell number, rep 1": 1.09e6, "Kc cell number, rep 2": 1.40e6, "S2R+ cell number, rep 1": 1.03e6, "S2R+ cell number, rep 2": 1.06e6, "Outcome": "inactive"}
{"Target gene": "trol (terribly reduced optic lobes)", "amplicon": "DRSC17718", "Kc cell number, rep 1": 1.38e6, "Kc cell number, rep 2": 1.82e6, "S2R+ cell number, rep 1": 1.10e6, "S2R+ cell number, rep 2": 1.17e6, "Outcome": "inactive"}
{"Target gene": "trol (terribly reduced optic lobes)", "amplicon": "DRSC18613", "Kc cell number, rep 1": 1.44e6, "Kc cell number, rep 2": 1.43e6, "S2R+ cell number, rep 1": 9.89e5, "S2R+ cell number, rep 2": 1.08e6, "Outcome": "inactive"}
{"Target gene": "trol (terribly reduced optic lobes)", "amplicon": "DRSC18814", "Kc cell number, rep 1": 1.53e6, "Kc cell number, rep 2": 1.50e6, "S2R+ cell number, rep 1": 1.03e6, "S2R+ cell number, rep 2": 1.12e6, "Outcome": "inactive"}
